The values below come from article PMC7862700.

Chains of the proteins cited; added tags and fusions are not shown. Lines headed by an entry give the natural chain unless they say otherwise; changes in a name come on top.
UniProt Q9Y603: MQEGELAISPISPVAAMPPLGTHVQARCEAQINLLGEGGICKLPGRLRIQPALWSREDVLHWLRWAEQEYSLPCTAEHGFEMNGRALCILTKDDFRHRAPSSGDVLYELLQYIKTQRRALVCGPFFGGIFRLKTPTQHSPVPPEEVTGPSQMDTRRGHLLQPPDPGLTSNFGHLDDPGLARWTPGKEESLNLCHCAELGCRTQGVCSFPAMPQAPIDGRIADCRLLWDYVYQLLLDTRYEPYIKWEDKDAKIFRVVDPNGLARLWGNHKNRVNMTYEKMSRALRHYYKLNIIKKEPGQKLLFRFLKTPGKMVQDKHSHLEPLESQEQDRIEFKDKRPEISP
UniProt P41212: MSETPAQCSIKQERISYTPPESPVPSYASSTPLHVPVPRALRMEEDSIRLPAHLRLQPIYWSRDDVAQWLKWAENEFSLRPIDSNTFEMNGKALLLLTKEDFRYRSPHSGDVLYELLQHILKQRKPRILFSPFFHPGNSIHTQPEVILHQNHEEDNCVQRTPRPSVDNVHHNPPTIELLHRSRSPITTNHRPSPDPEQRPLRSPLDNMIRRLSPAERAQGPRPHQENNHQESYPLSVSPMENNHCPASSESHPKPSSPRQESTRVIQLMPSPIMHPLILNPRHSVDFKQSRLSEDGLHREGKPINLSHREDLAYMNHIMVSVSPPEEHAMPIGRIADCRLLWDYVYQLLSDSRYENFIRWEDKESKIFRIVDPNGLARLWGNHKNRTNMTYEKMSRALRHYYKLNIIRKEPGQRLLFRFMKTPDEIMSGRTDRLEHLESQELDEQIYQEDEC

What all share (test): DAPPL (digital affinity profiling via proximity ligation, sequencing)
What all share (conditions): 10 mM Tris-HCl pH 7.5, 50 mM NaCl, 1 mM DTT, 4% glycerol, room temperature, 30 min; GST-TFs on glutathione beads, 16-mer random dsDNA library, 0.1% …; high values mean tight binding; double strand, one strand shown; scale: fold enrichment (6-mer frequency, TF over GST control)

Experiment [1] has as its target T1, ELF3 (UniProt P78545).
T1 sequence: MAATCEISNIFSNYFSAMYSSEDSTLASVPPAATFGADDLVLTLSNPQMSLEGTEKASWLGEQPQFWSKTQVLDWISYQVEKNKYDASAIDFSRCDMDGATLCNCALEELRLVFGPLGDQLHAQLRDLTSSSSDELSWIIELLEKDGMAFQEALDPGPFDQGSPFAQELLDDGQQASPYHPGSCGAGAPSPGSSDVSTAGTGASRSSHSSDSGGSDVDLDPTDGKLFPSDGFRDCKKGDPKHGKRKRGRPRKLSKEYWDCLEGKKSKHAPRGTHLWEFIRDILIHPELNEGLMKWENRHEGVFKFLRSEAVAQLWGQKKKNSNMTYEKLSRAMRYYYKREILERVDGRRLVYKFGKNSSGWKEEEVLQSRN

Experiment [2] concerns the target ETV7 (UniProt Q9Y603).
Experiment [3] has as its target ETV6 (UniProt P41212).

The entries are a selection whose mix differs from that of the whole data set. At the low end of the ranking the order means little.

Consider CAGAGC, for which the values for the binding signal in experiment [1], in experiment [2] and in experiment [3] were 0.919, 0.811 and 0.818, respectively.

For the sequence GCATGA, the binding signal turned out to be 0.888 in experiment [1], 0.767 in experiment [2] and 0.717 in experiment [3].

Consider GTCAAT, for which the binding signal in experiment [1] was determined as 0.833; in experiment [2] it was 0.9; in experiment [3], 0.859.

Take ATCGGT: the binding signal stood at 0.656 in experiment [1], 0.704 in experiment [2] and 0.722 in experiment [3].

As to GGCGCT, the binding signal was found to be 0.704 in experiment [1], 0.738 in experiment [2] and 0.736 in experiment [3].

Consider GGAGGG, for which the figures for the binding signal in experiment [1], in experiment [2] and in experiment [3] were 0.301, 0.355 and 0.314, respectively.

On to CGTGAT, for which the binding signal in experiment [1] was 0.475; in experiment [2], 0.473; in experiment [3], 0.444.

In the case of TACGTG, the binding signal in experiment [1] is 0.693; in experiment [2] it was 0.657; in experiment [3] it was 0.685.

On to GGAACC, for which the results for the binding signal in experiment [1], in experiment [2] and in experiment [3] were 0.811, 0.831 and 0.816, respectively.

On to GAAGAG, for which the results for the binding signal in experiment [1], in experiment [2] and in experiment [3] were 0.892, 0.92 and 0.928, respectively.

As to CCAGCC, the binding signal in experiment [1] is 0.749; in experiment [2], 0.763; in experiment [3], 0.736.

Regarding GGCGCC, the binding signal in experiment [1] came to 0.736; in experiment [2] it was 0.575; in experiment [3], 0.778.

Take ACGTGC: the binding signal in experiment [1] turned out to be 0.635; in experiment [2], 0.691; in experiment [3], 0.648.

On to GAGAGG, for which the results for the binding signal in experiment [1], in experiment [2] and in experiment [3] were 0.605, 0.599 and 0.52, respectively.

As for CCAGGA, the binding signal in experiment [1] came out at 0.787; in experiment [2], 0.68; in experiment [3] it was 0.7.

Consider GTTCGG, for which the results for the binding signal in experiment [1], in experiment [2] and in experiment [3] were 0.662, 0.621 and 0.619, respectively.

GACCAG: the binding signal came out at 0.668 in experiment [1], 0.587 in experiment [2] and 0.597 in experiment [3].

AACGAG: the binding signal in experiment [1] amounted to 0.88; in experiment [2], 0.825; in experiment [3] it was 0.782.

For AGTCAA, the values for the binding signal in experiment [1], in experiment [2] and in experiment [3] were 0.673, 0.648 and 0.627, respectively.

As to TGGAGG, the binding signal stood at 0.442 in experiment [1], 0.571 in experiment [2] and 0.478 in experiment [3].

Regarding GGGTTA, the binding signal in experiment [1] amounted to 0.864; in experiment [2], 0.815; in experiment [3], 0.781.

For CAGGTT, the binding signal in experiment [1] is 0.741; in experiment [2], 0.718; in experiment [3], 0.667.

GACGCA: the binding signal came to 0.506 in experiment [1], 0.494 in experiment [2] and 0.525 in experiment [3].

As for AGTGGG, the binding signal in experiment [1] was determined as 0.637; in experiment [2], 0.548; in experiment [3] it was 0.674.

Turning to TGGACG, the values for the binding signal in experiment [1], in experiment [2] and in experiment [3] were 0.629, 0.708 and 0.75, respectively.

With GTCAGT, the binding signal in experiment [1] was determined as 0.577; in experiment [2] it was 0.69; in experiment [3] it was 0.643.

In the case of AGCCTG, the binding signal came to 0.823 in experiment [1], 0.892 in experiment [2] and 0.77 in experiment [3].

As to AGCGCG, the binding signal was 0.776 in experiment [1], 0.841 in experiment [2] and 0.762 in experiment [3].

Take ACAGGG: the binding signal in experiment [1] came to 0.7; in experiment [2], 0.921; in experiment [3], 0.855.

Consider GAACGT, for which the binding signal in experiment [1] is 0.434; in experiment [2], 0.463; in experiment [3], 0.407.

Regarding CCAGAG, the binding signal in experiment [1] is 0.748; in experiment [2] it was 0.67; in experiment [3] it was 0.668.

Consider CGTGCG, for which the binding signal was determined as 0.658 in experiment [1], 0.64 in experiment [2] and 0.676 in experiment [3].

For CCGTAG, the figures for the binding signal in experiment [1], in experiment [2] and in experiment [3] were 0.915, 0.882 and 0.894, respectively.

Consider GGGAGG, for which the binding signal in experiment [1] is 0.278; in experiment [2] it was 0.389; in experiment [3], 0.334.

For the sequence CGTTGA, the results for the binding signal in experiment [1], in experiment [2] and in experiment [3] were 0.779, 0.851 and 0.751, respectively.

In the case of GCAGTC, the figures for the binding signal in experiment [1], in experiment [2] and in experiment [3] were 0.378, 0.503 and 0.439, respectively.

Consider ACAGTG, for which the figures for the binding signal in experiment [1], in experiment [2] and in experiment [3] were 0.541, 0.555 and 0.484, respectively.

On to TGCGAG, for which the binding signal is 0.938 in experiment [1], 0.953 in experiment [2] and 0.878 in experiment [3].

Take CCGTGC: the values for the binding signal in experiment [1], in experiment [2] and in experiment [3] were 0.562, 0.627 and 0.589, respectively.

Take AGCTGG: the binding signal in experiment [1] is 0.997; in experiment [2] it was 0.915; in experiment [3], 0.896.

As to TGCAGT, the figures for the binding signal in experiment [1], in experiment [2] and in experiment [3] were 0.869, 0.818 and 0.804, respectively.

For the sequence CGTGAC, the results for the binding signal in experiment [1], in experiment [2] and in experiment [3] were 0.59, 0.56 and 0.566, respectively.

For GCATCA, the binding signal in experiment [1] is 0.778; in experiment [2] it was 0.714; in experiment [3] it was 0.732.

As for GCGGCC, the values for the binding signal in experiment [1], in experiment [2] and in experiment [3] were 0.738, 0.824 and 0.75, respectively.

Regarding CGGACA, the binding signal in experiment [1] was 0.848; in experiment [2], 0.881; in experiment [3], 0.808.

In the case of TCGGAC, the figures for the binding signal in experiment [1], in experiment [2] and in experiment [3] were 0.344, 0.394 and 0.35, respectively.

Regarding GTTGGG, the binding signal is 0.711 in experiment [1], 0.748 in experiment [2] and 0.678 in experiment [3].

As to GGCCGT, the binding signal in experiment [1] was 0.355; in experiment [2], 0.413; in experiment [3], 0.366.

For CCGGAG, the binding signal in experiment [1] was 0.511; in experiment [2], 0.549; in experiment [3], 0.497.

Take CGGGTT: the binding signal in experiment [1] was 0.897; in experiment [2] it was 0.888; in experiment [3], 0.822.

As for GAACGC, the results for the binding signal in experiment [1], in experiment [2] and in experiment [3] were 0.867, 0.761 and 0.764, respectively.

Regarding GAGTTC, the binding signal was 0.677 in experiment [1], 0.776 in experiment [2] and 0.737 in experiment [3].

For GCGCTG, the binding signal is 0.77 in experiment [1], 0.821 in experiment [2] and 0.766 in experiment [3].

As for TCAGGT, the binding signal was found to be 0.877 in experiment [1], 0.865 in experiment [2] and 0.846 in experiment [3].

As to CATGTC, the binding signal was determined as 0.841 in experiment [1], 0.796 in experiment [2] and 0.82 in experiment [3].

Regarding TAGGCG, the values for the binding signal in experiment [1], in experiment [2] and in experiment [3] were 0.541, 0.662 and 0.614, respectively.

As for GTGGGT, the binding signal in experiment [1] worked out at 0.542; in experiment [2], 0.501; in experiment [3], 0.492.

Turning to GTCGGA, the figures for the binding signal in experiment [1], in experiment [2] and in experiment [3] were 0.162, 0.221 and 0.164, respectively.

Regarding TCAGGA, the binding signal in experiment [1] was determined as 0.733; in experiment [2], 0.774; in experiment [3], 0.897.

As for AGTTAG, the binding signal in experiment [1] came out at 0.842; in experiment [2], 0.901; in experiment [3], 0.832.
